We go through one molecule from paper PMC11845619.

Sequences of proteins named here, by UniProt entry; tags and fusion partners are left off.
UniProt Q92560: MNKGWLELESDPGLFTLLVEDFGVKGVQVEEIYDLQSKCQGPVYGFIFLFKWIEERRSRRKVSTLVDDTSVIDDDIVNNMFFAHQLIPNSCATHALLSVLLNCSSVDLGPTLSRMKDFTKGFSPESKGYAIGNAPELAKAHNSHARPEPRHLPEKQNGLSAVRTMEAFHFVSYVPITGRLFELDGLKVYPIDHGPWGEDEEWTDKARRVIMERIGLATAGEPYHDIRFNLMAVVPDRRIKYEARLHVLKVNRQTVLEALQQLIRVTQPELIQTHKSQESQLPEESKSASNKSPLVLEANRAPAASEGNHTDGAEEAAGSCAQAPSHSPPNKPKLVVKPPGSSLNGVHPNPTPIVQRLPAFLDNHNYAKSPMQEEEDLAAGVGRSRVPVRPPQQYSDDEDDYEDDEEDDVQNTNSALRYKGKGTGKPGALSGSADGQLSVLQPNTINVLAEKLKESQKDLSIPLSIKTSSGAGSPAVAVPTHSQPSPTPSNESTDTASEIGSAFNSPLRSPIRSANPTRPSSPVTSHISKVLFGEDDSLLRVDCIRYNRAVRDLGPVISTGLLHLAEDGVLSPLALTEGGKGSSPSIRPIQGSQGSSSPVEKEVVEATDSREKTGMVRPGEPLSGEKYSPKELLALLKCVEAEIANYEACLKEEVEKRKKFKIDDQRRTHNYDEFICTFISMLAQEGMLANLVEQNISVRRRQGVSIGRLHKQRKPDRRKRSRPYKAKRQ

These are yes or no findings as the source states them, for the method shown. In cells and extracts the contact can be indirect. Some entries that bind do so weakly or less than the wild type. Sequences can lack the tags named with a protein.

The assay addresses BRCA1-associated protein 1 (BAP1), endogenous nuclear (human (endogenous in PLC/PRF/5)) (UniProt Q92560). As to the kind of experiment: co-IP; anti-BAP1 antibody on endogenous nuclear proteins of PLC/PRF/5 cells; blot for OGT.

B1: O-linked N-acetylglucosamine (GlcNAc) transferase (OGT) (enzyme, UniProt O15294 1-1046)
chain: MASSVGNVADSTEPTKRMLSFQGLAELAHREYQAGDFEAAERHCMQLWRQEPDNTGVLLLLSSIHFQCRRLDRSAHFSTLAIKQNPLLAEAYSNLGNVYKERGQLQEAIEHYRHALRLKPDFIDGYINLAAALVAAGDMEGAVQAYVSALQYNPDLYCVRSDLGNLLKALGRLEEAKACYLKAIETQPNFAVAWSNLGCVFNAQGEIWLAIHHFEKAVTLDPNFLDAYINLGNVLKEARIFDRAVAAYLRALSLSPNHAVVHGNLACVYYEQGLIDLAIDTYRRAIELQPHFPDAYCNLANALKEKGSVAEAEDCYNTALRLCPTHADSLNNLANIKREQGNIEEAVRLYRKALEVFPEFAAAHSNLASVLQQQGKLQEALMHYKEAIRISPTFADAYSNMGNTLKEMQDVQGALQCYTRAIQINPAFADAHSNLASIHKDSGNIPEAIASYRTALKLKPDFPDAYCNLAHCLQIVCDWTDYDERMKKLVSIVADQLEKNRLPSVHPHHSMLYPLSHGFRKAIAERHGNLCLDKINVLHKPPYEHPKDLKLSDGRLRVGYVSSDFGNHPTSHLMQSIPGMHNPDKFEVFCYALSPDDGTNFRVKVMAEANHFIDLSQIPCNGKAADRIHQDGIHILVNMNGYTKGARNELFALRPAPIQAMWLGYPGTSGALFMDYIITDQETSPAEVAEQYSEKLAYMPHTFFIGDHANMFPHLKKKAVIDFKSNGHIYDNRIVLNGIDLKAFLDSLPDVKIVKMKCPDGGDNADSSNTALNMPVIPMNTIAEAVIEMINRGQIQITINGFSISNGLATTQINNKAATGEEVPRTIIVTTRSQYGLPEDAIVYCNFNQLYKIDPSTLQMWANILKRVPNSVLWLLRFPAVGEPNIQQYAQNMGLPQNRIIFSPVAPKEEHVRRGQLADVCLDTPLCNGHTTGMDVLWAGTPMVTMPGETLASRVAASQLTCLGCLELIAKNRQEYEDIAVKLGTDLEYLKKVRGKVWKQRISSPLFNTKQYTMELERLYLQMWEHYAAGNKPDHMIKPVEVTESA
Take B1: the binding entry is reported as “binds”.
